Measurements published in US12054466B2, “Compounds for the treatment of clostridium difficile infection” (University of Notre Dame du Lac, priority 2016, dated 2024).
For part of these data: At least one read-out could not be matched to a standard name with certainty. Some results were stated once for a whole list of compounds, not compound by compound.

Key:
C. difficile = experiment: MIC against C. difficile (strain not named; 14 strains overall); type: cell-based, Clostridium difficile
[1] = Pharmacokinetics after single po and iv administration; settings: mice; 20 mg/kg po

FC(F)(F)c1ccc(Oc2ccc(-c3noc(-c4ccc5[nH]ccc5c4)n3)cc2)cc1 [Compound 1]
MIC range in 14 C. difficile strains (C. difficile): 1 to 2 µg/mL

Oc1ccc(-c2nc(-c3ccc(OC4CCCC4)cc3)no2)cc1 [Compound 2]
MIC range in 14 C. difficile strains (C. difficile): 1 to 2 µg/mL
Time at which Cmax was attained [1]: 1 h
